No constants are given. Whether binding was seen depends on the method and setting. In cells and extracts the contact can be indirect. Some entries that bind do so weakly or less than the wild type. Tags and fused reporters may be left off the sequences shown.
Tests used:
Test in all cases: co-IP
[1] = target: T1, ΔM-Lip^xtal-V5 (mouse lipin 1α Δ458-548 with C-terminal V5-His tag) (mouse) (UniProt Q91ZP3)
T1 sequence: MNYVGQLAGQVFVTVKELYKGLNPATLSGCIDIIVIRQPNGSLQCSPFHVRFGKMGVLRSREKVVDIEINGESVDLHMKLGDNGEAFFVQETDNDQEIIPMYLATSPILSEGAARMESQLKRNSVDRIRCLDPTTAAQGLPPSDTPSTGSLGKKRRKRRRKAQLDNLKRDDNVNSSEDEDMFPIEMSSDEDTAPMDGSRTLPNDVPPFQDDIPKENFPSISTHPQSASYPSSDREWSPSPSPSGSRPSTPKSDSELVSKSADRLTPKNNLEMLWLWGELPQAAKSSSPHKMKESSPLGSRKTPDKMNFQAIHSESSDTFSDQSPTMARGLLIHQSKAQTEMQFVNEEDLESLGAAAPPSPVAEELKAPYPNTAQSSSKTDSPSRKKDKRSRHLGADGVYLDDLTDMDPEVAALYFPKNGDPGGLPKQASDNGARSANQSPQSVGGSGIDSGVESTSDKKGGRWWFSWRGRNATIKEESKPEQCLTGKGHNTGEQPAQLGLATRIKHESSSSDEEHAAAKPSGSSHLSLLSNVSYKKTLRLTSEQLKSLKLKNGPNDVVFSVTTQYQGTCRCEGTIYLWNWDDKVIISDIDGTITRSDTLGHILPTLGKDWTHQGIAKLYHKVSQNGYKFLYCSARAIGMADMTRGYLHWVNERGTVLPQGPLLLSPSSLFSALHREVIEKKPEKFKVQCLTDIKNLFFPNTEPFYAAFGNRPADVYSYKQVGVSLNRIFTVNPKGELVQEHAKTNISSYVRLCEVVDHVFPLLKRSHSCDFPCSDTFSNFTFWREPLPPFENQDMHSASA

[2] = target: T2, wild-type lipin 1-V5 (full-length mouse lipin 1α with C-terminal V5-His tag) (mouse) (UniProt Q91ZP3)
T2 sequence: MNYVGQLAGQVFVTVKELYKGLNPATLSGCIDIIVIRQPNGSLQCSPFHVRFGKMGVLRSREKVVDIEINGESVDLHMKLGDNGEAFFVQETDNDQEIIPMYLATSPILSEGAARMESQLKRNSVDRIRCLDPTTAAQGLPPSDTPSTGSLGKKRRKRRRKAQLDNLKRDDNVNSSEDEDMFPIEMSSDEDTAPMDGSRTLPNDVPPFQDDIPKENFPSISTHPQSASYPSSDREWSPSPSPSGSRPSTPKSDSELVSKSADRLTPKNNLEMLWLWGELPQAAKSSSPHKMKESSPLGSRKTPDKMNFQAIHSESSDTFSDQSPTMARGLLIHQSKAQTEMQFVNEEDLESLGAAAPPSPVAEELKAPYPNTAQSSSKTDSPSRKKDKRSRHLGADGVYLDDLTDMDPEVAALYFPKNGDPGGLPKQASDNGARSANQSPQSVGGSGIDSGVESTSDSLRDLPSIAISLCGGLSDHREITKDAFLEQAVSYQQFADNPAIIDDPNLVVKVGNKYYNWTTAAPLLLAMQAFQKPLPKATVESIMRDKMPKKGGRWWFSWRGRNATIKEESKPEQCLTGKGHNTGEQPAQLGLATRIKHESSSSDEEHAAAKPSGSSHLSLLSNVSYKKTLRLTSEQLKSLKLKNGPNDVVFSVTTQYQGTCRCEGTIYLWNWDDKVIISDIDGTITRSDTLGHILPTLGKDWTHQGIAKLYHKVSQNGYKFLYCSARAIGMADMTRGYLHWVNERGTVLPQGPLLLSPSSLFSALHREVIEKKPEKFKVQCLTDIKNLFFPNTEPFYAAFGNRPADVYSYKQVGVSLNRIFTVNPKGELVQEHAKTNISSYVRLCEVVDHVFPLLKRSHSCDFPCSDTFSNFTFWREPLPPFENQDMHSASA

[3] = target: T3, ΔMLip-V5 (mouse lipin 1α Δ458-565 with C-terminal V5-His tag) (mouse) (UniProt Q91ZP3)
T3 sequence: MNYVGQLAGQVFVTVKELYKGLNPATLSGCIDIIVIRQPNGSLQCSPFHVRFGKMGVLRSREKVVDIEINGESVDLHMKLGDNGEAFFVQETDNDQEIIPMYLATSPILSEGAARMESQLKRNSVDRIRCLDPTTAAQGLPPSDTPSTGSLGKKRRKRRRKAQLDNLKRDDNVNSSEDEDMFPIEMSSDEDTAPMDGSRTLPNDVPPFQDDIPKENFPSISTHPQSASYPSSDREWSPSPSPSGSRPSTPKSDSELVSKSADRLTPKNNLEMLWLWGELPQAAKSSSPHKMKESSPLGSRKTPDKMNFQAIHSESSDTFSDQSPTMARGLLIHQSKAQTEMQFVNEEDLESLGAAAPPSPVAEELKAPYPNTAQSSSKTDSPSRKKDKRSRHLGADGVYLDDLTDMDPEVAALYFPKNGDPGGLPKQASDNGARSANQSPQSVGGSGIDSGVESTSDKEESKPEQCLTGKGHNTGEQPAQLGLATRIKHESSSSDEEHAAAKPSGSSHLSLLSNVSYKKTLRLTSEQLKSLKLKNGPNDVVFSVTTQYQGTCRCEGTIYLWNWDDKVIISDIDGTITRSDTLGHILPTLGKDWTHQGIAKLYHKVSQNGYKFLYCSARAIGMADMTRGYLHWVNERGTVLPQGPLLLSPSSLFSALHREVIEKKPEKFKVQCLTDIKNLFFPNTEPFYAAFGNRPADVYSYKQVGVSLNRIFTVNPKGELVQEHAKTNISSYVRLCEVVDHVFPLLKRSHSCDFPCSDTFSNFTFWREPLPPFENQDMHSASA

Measured: binding

B1: lipin 2-BirA*-HA (enzyme, UniProt Q99PI5 1-893)
chain: MNYVGQLAGQVLVTVKELYKGINQATLSGCIDVVVVRQQDGSYQCSPFHVRFGKLGVLRSKEKVIDIEINGSAVDLHMKLGDNGEAFFVEETEEEYEKLPAYLATSPIPTEDQFFKHIETPLVKSSGNERPAQSSDVSHTLESEAVFTQSSVKKKKRRRKKCKQDNRKEEQAASPVAEDVGDVGVSSDDEKRAQAARGSSNASLKEEDYKEPSLFHSGDNYPLSDGDWSPLETTYPQAVCPKSDSELEVKPSESLLRSEPHMEWTWGGFPESTKVTKRERYDYHPRTATITPSENTHFRVIPSEDSLIREVEKDATVEDTTCTIVKPKPRALCKQLSDAASTELPESPLEAPQISSLLDADPVPSPSAEAPSEPKPAAKDSPTKKKGVHKRSQHQGPDDIYLDDLKALEPEVAALYFPKSDTDPGSRQWPESDTFSGSQSPQSVGSAAADSGTECLSDSAMDLPDVTLSLCGGLSENGEISKEKFMEHIITYHEFAENPGLIDNPNLVIRIYNRYYNWALAAPMILSLQVFQKSLPKATVESWVKDKMPKKSGRWWFWRKKESMIKQLPETKEGKSEVPPANDLPSNAEEPTSARPAENDTSSDEGSQELEESIKVDPITVETLSHCGTASYKKSLRLSSDQIAKLKLHDGPNDVVFSITTQYQGTCRCAGTIYLWNWNDKVIISDIDGTITKSDALGQILPQLGKDWTHQGIARLYHSINENGYKFLYCSARAIGMADMTRGYLHWVNDKGTILPRGPLMLSPSSLFSAFHREVIEKKPEKFKIECLNDIKNLFAPSRQPFYAAFGNRPNDVYAYTQVGVPDCRIFTVNPKGELIQERTKGNKSSYHRLSELVEHVFPLLSKEQNSAFPCPEFSSFCYWRDPIPDLDLDDLA
binds: [1] | [2] | [3]

B2: lipin 3-BirA*-HA (enzyme, UniProt Q99PI4 1-848)
chain: MNYVGQLAETVFGTVKELYRGLNPATLSGGIDVLVVRQRDGSFRCSPFHVRFGKLGVLRSREKVVDIEINGEPVDLHMKLGDSGEAFFVQELDSDEEDVPPRLCTSPIPWGGLSGFPSDSQIGTASEPEGLVITGRRKRRRRRKPRRREEDAVDSSSEELEAGAESELTLLEKPTPESPSAQEAEEPSSQPKDIHPYSDGECTPQANLSSGDLMSPKSDSELELRSLEPSPLRAESHMQWVWGRLPKVAKAERPEFSLILESMAEAICALPEEPSPSSSPSEAGVDTLSPPVLHPGVRADTFHPAVEAHCEETAVDSPLAAPESKETKTQNSRGAGHPPATKSWSWTTPESHTPSGHPQVSRGKGSLKRNQHLGPSDIYLDDLPSLDSENVALYFPKSEYGMGARRWSEPSNQKLLESPNPEHIAECTLDSVDKIELSLCGGLADNRDISLEKFTQHMVSYEDLTKNPGLLDDPNLVVKINEKHYNWAVAAPMILSLQAFQKNLPESTVDKLEKEKMPRKGGRWWFSWRRRDFPAEEHSSQREKAATRKQQGEKTEVLSSDDDVPDSPVILEVPPLPSSTPGYVPTYKKSLRLSSDQIRCLNLNEGANDVVFSVTTQYQGTCRCKATIYLWNWDDKVVISDIDGTITKSDALGHILPQLGKDWTHQGITSLYHKIHLNGYKFLYCSARAIGMADLTKGYLQWVSEHGCGLPKGPILLSPSSLFSALHREVIEKKPEVFKVACLSDIQQLFLPQRQPFHAAFGNRPNDVFAYRQVGLPESRIFTVNPRGELIQELIKSHKSTYQRLGEVVELLFPPVVRGPSTDLASPEYSNLSYWRKPLPYVDFEALA
binds: [1] | [2] | [3]
